# In all, about 33,000 sequences were measured (“E-score (-0.5 to 0.5)”: median about -0.0034, highest 2% from about 0.25 on). The list shows a part of the results.
# Biological target: T1, Yap3 (UniProt P38749)
# T1 sequence: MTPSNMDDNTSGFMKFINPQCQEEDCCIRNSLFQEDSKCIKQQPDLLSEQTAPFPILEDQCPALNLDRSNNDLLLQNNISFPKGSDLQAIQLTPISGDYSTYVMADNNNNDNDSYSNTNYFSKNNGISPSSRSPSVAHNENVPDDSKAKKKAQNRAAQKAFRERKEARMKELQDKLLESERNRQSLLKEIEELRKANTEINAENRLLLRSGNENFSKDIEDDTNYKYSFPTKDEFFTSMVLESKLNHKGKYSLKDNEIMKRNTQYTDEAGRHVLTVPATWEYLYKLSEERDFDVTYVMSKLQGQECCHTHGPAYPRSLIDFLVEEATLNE
# Experiment: PBM E-score (8-mer binding enrichment) (E-score (-0.5 to 0.5)); higher = stronger / more preferred TF binding
# Conditions: protein concentration: 100 nM; construct: GST-full length
# Description: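 Universal 'all 10-mer' protein binding microarrays (Agilent AMADID 015681) probed with GST-tagged S. cerevisiae TFs (full-length or DBD) made by in vitro transcription/translation (PURExpress), about 100-200 nM. Bound TF was detected with fluorescent anti-GST. Each ungapped 8-mer (which stands for itself and its reverse complement) is scored by the PBM enrichment score (E-score), a modified Wilcoxon-Mann-Whitney statistic from -0.5 to +0.5, computed with the Universal PBM Analysis Suite. Scale: above 0.35 generally sequence-specific binding.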
row,Sequence,PBM E-score
1,CAAAGGCG,-0.0428
2,TGGGGACA,-0.0974
3,GAGTCTCA,-0.0909
4,AGACATTA,0.0629
5,CGCGAACC,-0.0735
6,AAGTTTTC,0.109
7,CGACAAAG,0.118
8,ATTCCTGC,0.0399
9,CTGTTCTC,-0.0113
10,GCAAACAC,-0.0377
11,CCCTCGGC,-0.293
12,GAGTCTCC,-0.135
13,CAAATCTA,0.199
14,CAGAACGC,-0.063
15,GAACCCGA,-0.121
16,AAGCAGCG,-0.0118
17,ACAGTCGA,-0.128
18,AGGTAACA,0.132
19,GAATGAAC,0.0585
20,GCAATCCC,-0.118
21,AAAAGAAA,0.189
22,GCACTACC,0.0322
23,AAAGGGCA,-0.136
24,CAACTTCA,0.0635
25,TGGGAACA,0.122

# Reprinted at random: seven entries already listed
row,Sequence,PBM E-score
21,AAAAGAAA,0.189
2,TGGGGACA,-0.0974
16,AAGCAGCG,-0.0118
14,CAGAACGC,-0.063
13,CAAATCTA,0.199
12,GAGTCTCC,-0.135
22,GCACTACC,0.0322

# Remaining list, next part

row,Sequence,PBM E-score
1,ATAAGACA,0.151
2,CGCGTATC,0.162
3,AGGTAATC,0.107
4,ATTCCGGG,-0.0546
5,AGTTCTGA,0.0186
6,AGCCCACG,-0.174
7,ACAACAGC,0.0808
8,CTGCTTAC,0.0803
9,ACGACTTG,-0.0739
10,GTGTCTAA,-0.0246
11,ACGCAAAG,-0.138
12,AAAGTCCT,-0.105
13,AGACGAAG,-0.105
14,AAATGCAA,0.103
15,CGACGATA,-0.0311
16,AACGTGGA,0.0258
17,AAGGGAGT,-0.201
18,CATGAAGA,0.0514
19,GTCCTATA,-0.0462
20,CCACCGAG,-0.0958
21,GCGCGAGC,-0.184
22,CTATAGGC,-0.14
23,CTTGAAAG,0.00251
24,AGCTCAAG,-0.099
25,ACACTATG,-0.0355

row,Sequence,PBM E-score
1,GGGCAACC,-0.0204
2,ACTTGTAT,0.171
3,CCGTCGAA,-0.0215
4,AAATATTA,0.349
5,ACGAGGTA,0.0608
6,ATCAATCC,-0.0474
7,AGCATCAG,0.0377
8,ATAGTCCA,0.0381
9,CGTTCCCA,-0.127
10,CAACAATG,0.0789
11,CATATTTC,0.0493
12,CCGATTGC,0.189
13,GTGGACAC,-0.0256
14,CCCCATAG,-0.158
15,CTCACTCC,-0.136
16,GGGGTGAC,-0.131
17,CTGAGTTC,0.052
18,CTAAGTCC,-0.258
19,GCACGCGA,0.00354
20,CCGCAAAC,0.0957
21,TACCCAAA,0.0436
22,GAATAAGA,0.109
23,CTCAGTAA,-0.0289
24,CTGGCCGC,-0.114
25,AATTAAGC,0.0716

row,Sequence,PBM E-score
1,CCTGAGTA,-0.111
2,CTTGGTGA,-0.0556
3,AAATGCTG,0.0677
4,AGCGATGG,-0.166
5,CTGGAATC,-0.0213
6,TCATTGAA,0.0474
7,GAGCGGGA,-0.166
8,CATTTCGA,0.178
9,CACAGGCC,-0.148
10,GGGCACAC,-0.268
11,ATAAACTG,0.105
12,CATAGCCC,-0.24
13,TAGAATAA,0.181
14,CCGGAAGG,-0.199
15,ACGTTGAG,-0.0204
16,AAGCCAAA,-0.0335
17,AACTATGC,0.0633
18,CTTTAACC,0.0375
19,AAATTATA,0.249
20,CATCTGGC,-0.066
21,AAAAGCGA,0.2
22,GTCCTTGA,-0.0515
23,ATCCCGCA,-0.0347
24,CCTATGCG,-0.0477
25,AACCGTCG,-0.0703

row,Sequence,PBM E-score
1,CATCGTGC,-0.0797
2,GCATCTTA,0.122
3,CTAACTGC,0.0427
4,CGCAGAGC,-0.0695
5,ATGCCCCC,-0.204
6,AACCCCCC,-0.443
7,ACGGCAAA,0.134
8,AGCCCCCC,-0.423
9,CAATATCG,0.0672
10,ACCCTTTA,0.101
11,GAGGGCAC,-0.262
12,CCATTACA,0.272
13,CGGAGCCA,-0.131
14,ATTATAAG,0.0886
15,GCTTAGGA,0.0143
16,ACATACAG,0.129
17,AATGGTAG,0.0426
18,GTCGCTGA,-0.0498
19,GACCACAA,-0.108
20,CCAATTAC,0.274
21,CATCAAGG,-0.128
22,GTACTAAC,0.136
23,CCGAAAAC,-0.0348
24,AAGACTGA,0.0261
25,GAGACTAC,-0.101

row,Sequence,PBM E-score
1,ACCTACAG,-0.0362
2,CTCCGTGA,-0.0971
3,ATGTTTCG,0.25
4,CGTGGTAA,-0.0407
5,CCACCTGG,-0.32
6,ATTTGTGC,0.0412
7,ATCCACCG,0.0749
8,CCCTTGAA,-0.0355
9,TAAGGAGA,-0.0697
10,ACCGCTAT,-0.0612
11,ATACTTGA,-0.138
12,AGAGATAG,0.0415
13,GCCGGGCA,-0.245
14,AGACCGCG,-0.0512
15,ACTCGTAG,-0.0754
16,TCTAAGAA,0.188
17,ACAATTAC,0.203
18,GCCAGCGC,-0.205
19,AACCCCTA,-0.201
20,CAGACTGC,0.00328
21,GTGAATGA,0.0535
22,ACTTTGGG,-0.115
23,AAGGTACG,0.0472
24,GCAATGCA,-0.00493
25,AGAGCCTG,-0.104

row,Sequence,PBM E-score
1,AGCCGATC,0.0299
2,CAGATACC,-0.0445
3,CCTATCAG,-0.0853
4,ATCAACGG,0.182
5,AGTCAGAC,0.0445
6,GAAAATGC,0.0109
7,ACTGGTTG,0.0576
8,CTAAAACA,0.148
9,AGACTCAA,-0.15
10,CATTAGAG,0.00896
11,CTTAGAAC,0.0408
12,CCTCGGTC,-0.129
13,AATGAATG,0.24
14,GGGGCGGA,-0.229
15,TACACTCA,0.109
16,ACCCACCA,-0.0969
17,CATCCGGA,-0.125
18,ATGTCGAA,0.0205
19,CATACACA,0.0332
20,AATTAAAA,0.177
21,ACGTTTAC,0.0268
22,ATTCCCGA,0.0393
23,CGAATGGA,0.105
24,TGTTTTAA,0.208
25,CATTACAC,0.205

row,Sequence,PBM E-score
1,GGTTCTAA,0.218
2,CGATATGC,0.0243
3,GTCCACCA,-0.18
4,GCGTGAGC,0.109
5,CAGTTTGG,-0.105
6,CCTCTTTC,-0.129
7,CTCTAGTA,-0.0476
8,AATTCTTC,0.0549
9,ACCACGAT,0.136
10,GCTCGTGA,-0.0796
11,AGTAGTCC,-0.0537
12,AAGTGGCG,0.157
13,CTGAAGGA,-0.168
14,CATTCTGG,-0.153
15,CTCTAACA,0.0178
16,AAAGGTTA,0.151
17,ACCGCCGC,-0.0309
18,ATTAGCAA,0.223
19,AAAAGCAG,0.0262
20,GGTGATAC,-0.0272
21,TATCGTAA,0.182
22,ACCGCGTC,0.0345
23,GCGAAACC,0.165
24,ACGGGTAA,0.00851
25,CAGCTTGG,0.0808

row,Sequence,PBM E-score
1,GCATGGCA,-0.00214
2,CACCGCAC,-0.163
3,CCGAGAGC,-0.214
4,CTAACCTC,-0.0994
5,GAGGCCCC,-0.356
6,AGGCCCAT,-0.224
7,AAAGGAAC,0.122
8,GCGCCCAA,-0.0804
9,TCTATAGA,-0.23
10,CTGCGTAC,-0.181
11,CTGGCACC,-0.221
12,CCCAAGCC,-0.221
13,AATCGATT,0.179
14,CAGCCACA,-0.00717
15,GGGGGCGA,-0.29
16,CATGAACG,-0.134
17,AGTCTCAC,-0.0421
18,ACGGGAGC,-0.0922
19,CACAGCAG,-0.211

# From the supplement of paper PMC3334620
